# Results reported in article PMC4015341.
# By UniProt entry, the sequences of proteins in these tests, tags left out. Where a name states a change or a piece, a line headed by the entry shows the natural chain unless it says otherwise.
# UniProt Q9LQQ4: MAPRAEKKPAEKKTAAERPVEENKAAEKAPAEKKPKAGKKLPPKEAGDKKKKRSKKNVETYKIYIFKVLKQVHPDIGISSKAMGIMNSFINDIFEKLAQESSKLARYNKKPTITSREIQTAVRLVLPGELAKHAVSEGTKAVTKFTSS
# Like-named read-outs stand apart in the source and are kept apart here. Results are given in words; binding and its absence hold for the method and conditions named. For some assays here: Binding seen in cells or lysates may run through a third protein. Some results given as binding are weak or reduced against the parent protein; the word gives no strength. Where a sequence is shown, tags or fusion partners need not be part of it.
# T1: Full length LUH as N-LUC fusion (Arabidopsis thaliana) (UniProt O48847)
# T1 sequence: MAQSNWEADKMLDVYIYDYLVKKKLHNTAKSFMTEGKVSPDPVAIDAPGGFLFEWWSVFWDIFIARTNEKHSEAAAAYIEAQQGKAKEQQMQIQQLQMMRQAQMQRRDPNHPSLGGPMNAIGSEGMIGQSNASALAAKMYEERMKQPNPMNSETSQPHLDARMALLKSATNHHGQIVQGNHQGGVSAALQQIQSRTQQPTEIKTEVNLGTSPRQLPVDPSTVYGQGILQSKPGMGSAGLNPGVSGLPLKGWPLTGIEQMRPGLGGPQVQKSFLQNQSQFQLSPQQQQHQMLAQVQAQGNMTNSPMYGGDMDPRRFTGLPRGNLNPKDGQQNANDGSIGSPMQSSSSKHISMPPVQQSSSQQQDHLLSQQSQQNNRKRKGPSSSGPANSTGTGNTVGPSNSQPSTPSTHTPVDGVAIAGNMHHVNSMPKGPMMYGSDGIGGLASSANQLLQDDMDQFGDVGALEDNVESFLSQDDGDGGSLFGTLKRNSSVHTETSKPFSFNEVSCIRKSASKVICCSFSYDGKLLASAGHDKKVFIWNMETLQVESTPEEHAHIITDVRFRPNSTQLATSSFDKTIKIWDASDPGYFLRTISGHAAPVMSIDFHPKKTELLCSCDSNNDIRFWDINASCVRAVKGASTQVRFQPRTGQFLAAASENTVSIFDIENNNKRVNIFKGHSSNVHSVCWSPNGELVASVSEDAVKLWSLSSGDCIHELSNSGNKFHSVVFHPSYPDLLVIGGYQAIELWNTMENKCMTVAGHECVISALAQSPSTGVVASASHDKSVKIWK
# T2: LEUNIG_HOMOLOG (LUH) fused with the Gal4 DNA binding domain (Arabidopsis thaliana) (UniProt O48847)
# T2 sequence: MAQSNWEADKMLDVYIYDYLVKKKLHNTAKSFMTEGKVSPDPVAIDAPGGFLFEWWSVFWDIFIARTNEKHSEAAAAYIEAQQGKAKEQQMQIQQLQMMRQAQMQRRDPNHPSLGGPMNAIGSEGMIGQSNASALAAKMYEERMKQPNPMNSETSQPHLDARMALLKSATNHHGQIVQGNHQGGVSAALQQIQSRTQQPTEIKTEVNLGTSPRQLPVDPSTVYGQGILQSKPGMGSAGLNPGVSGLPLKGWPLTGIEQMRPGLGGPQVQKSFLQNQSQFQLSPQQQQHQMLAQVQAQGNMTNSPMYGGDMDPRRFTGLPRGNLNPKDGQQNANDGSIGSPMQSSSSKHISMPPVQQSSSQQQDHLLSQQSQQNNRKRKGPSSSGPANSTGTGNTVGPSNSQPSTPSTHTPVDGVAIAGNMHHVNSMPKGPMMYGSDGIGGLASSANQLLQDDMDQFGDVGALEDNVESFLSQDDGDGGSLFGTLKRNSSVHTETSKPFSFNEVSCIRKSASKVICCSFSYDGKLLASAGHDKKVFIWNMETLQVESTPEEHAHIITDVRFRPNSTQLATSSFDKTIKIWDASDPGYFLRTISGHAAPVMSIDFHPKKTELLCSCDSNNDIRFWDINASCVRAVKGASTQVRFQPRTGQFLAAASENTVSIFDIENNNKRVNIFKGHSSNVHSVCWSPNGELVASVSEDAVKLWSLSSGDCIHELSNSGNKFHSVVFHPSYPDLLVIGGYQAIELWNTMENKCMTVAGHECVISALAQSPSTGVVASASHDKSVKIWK
# T3: LUFS domain of LUH (amino acid residues 1-88) as Gal4 BD fusion (Arabidopsis thaliana) (UniProt O48847)
# T3 sequence: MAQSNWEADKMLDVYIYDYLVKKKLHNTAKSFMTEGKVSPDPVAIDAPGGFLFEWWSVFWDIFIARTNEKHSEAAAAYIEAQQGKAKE
# Legend:
# [1] = target: T1, Full length LUH as N-LUC fusion (Arabidopsis thaliana); assay: split reporter; split luciferase complementation in Arabidopsis protoplasts; 15 ug of each N-LUC and C-LUC fusion plasmid, 5 x 10^4 protoplasts, 16 h in the dark at room temperature; LUC relative to Renilla LUC
# [2] = target: T2, LEUNIG_HOMOLOG (LUH) fused with the Gal4 DNA binding domain (Arabidopsis thaliana); assay: two-hybrid; Y2H Gold yeast; bait as Gal4-BD fusion (pGBKT7), prey as Gal4-AD fusion (pGADT7); alpha-galactosidase reporter, blue colour indicates positive interaction
# [3] = target: T2, LEUNIG_HOMOLOG (LUH) fused with the Gal4 DNA binding domain (Arabidopsis thaliana); assay: as above; remark: listed apart in the source
# [4] = target: T3, LUFS domain of LUH (amino acid residues 1-88) as Gal4 BD fusion (Arabidopsis thaliana); assay: as above
# [5] = target: T1, Full length LUH as N-LUC fusion (Arabidopsis thaliana); assay: split reporter; split luciferase complementation in Arabidopsis protoplasts; 15 ug of each N-LUC and C-LUC fusion plasmid, 5 x 10^4 protoplasts, 16 h in the dark at room temperature; LUC relative to Renilla LUC; remark: listed apart in the source
binding [3],binding [4],binding [5],Molecule,also measured
–,–,binds,"SLK1 as C-LUC fusion (protein, UniProt Q0WVM7 1-748) MNRTVVSGAVESSFSLTDAVGTEALNMQRSSGINNNMRIPTSPMSFSSNSVNIPGSLVLDGSAASMQHLPQQQQQQLLQQQTGQGSVPMRENNYSHVDKKPRLEVKQEDMLQQQILQQLIQRQDPTGRNPQMQALLQQQRLRQHQQMLQSMSPSQRLQLQQQQQLRQQLQQQGTQQIPPNVRPYEVGVCARKLMMYLYHLQQRPAENCITYWRKFVAEYFSPRAKQRLCLSQYESAGHHALGMFPQAAPDMWQCDLCGTKSGKGFEATFDVLARLIEIKFASGIIDELLYLDHPRENRFPNGLMMLEYRKAVQETVHEQFRVVREGHLRIIFSQDLKILSWEFCARRHEELLLRRLIAPQVNQLLQVAQKCQSTISESGSEGVSQQDLQSNSNMVLGAGRQLAKFMELQSLNDLGYPKRYIRTLQISEVVKSMKDLMNFTGEQKIGPIEGLKRLLEQTVTVKLQKQKMQEMEQFGNNGAINGPVQAQMVLTSGTMNGSTGNNTNNHHQIVGRGAMSGPAEGQMVISSGTVSGATANNNSNNHNQIVGRGAMNGSAQAAAALTNYQSMLMRQNAMNNPNSNTGKQEGFSSQNPTPNSNQSPSSSSQQRHNLVTGGFPNSPQMQQQQRTMNGPTNILPQNHPHQLQSPHSHGNTPEQQMLHQLLQEMSENGGSVQQQQAFSGQSGSNSNAERNTTASTSNISGGGRAPSRNNSFKAASNNNLHFSEDISITDHDFSEDGFFNNNDIYGGL",–
binds,binds,–,"SEUSS-LIKE2 (SLK2) fused with the Gal4 activation domain (protein, UniProt Q94BP0 1-816) MASSTSGIFFQGDDESQSFINSHLTSSYGNSSNSAPGCGGPTGGYHNLSMVSGDMHNPVMMSVSTPGPSAGASSLVTDANSGLSGGGPHLQRSASINNESYMRLPASPMSFSSNNISISGSSVVDGSTVVQRHDPSVQLGGSSATSLPTSQTNQIPLSMARRASESFFQDPNNLTQARKKPRLDSKQDDALQQQILRQWLQRQDILQQQQQQQQQGQNPQFQILLQQQKLRQQQQYLQSLPPLQRVQLQQQQQVQQQQQLQQQHQQQQQQLQQQGMQMQLTGGPRPYENSVCARRLMQYLYHQRQRPSESSIVYWRKFVTEYFSPRAKKRWCLSHYDNVGHSALGVSPQAATDEWQCDLCGSKSGRGFEATFDVLPRLNEIKFASGVLDELLYLGVPSERRYGSGIMVLEYGKAVQESVYEHIRVVREGHLRIIFSQELKILSWEFCTRRHEELLPRRLVAPQVNQLLQVAEKCQSTIDQSGSDGIHQQDLQANSNMVMAAGRQLAKSLESHSLNDLGFSKRYVRCLQISEVVSSMKDMIDFCRDQKVGPIEALKSYPYRMKAGKPQMQEMEQLAAARGLPPDRNSLNKLMALRNSGINIPMNNMSGQGSLPGSAQAAAFALTNYQSMLMKQNHLNSDLNNTTIQQEPSRNRSASPSYQGTSPLLPGFVHSPSISGVSSHLSPQRQMPSSSYNGSTQQYHQQPPSCSSGNQTLEQQMIHQIWQQMANSNGGSGQQQQSLSGQNMMNCNTNMGRNRTDYVPAAAETPSTSNRFRGIKGLDQSQNLEGIISNTSLNFGNNGVFSNEVDESMGGYSWKS",–
–,–,binds,"SLK2 as C-LUC fusion (protein, UniProt Q94BP0 1-816) MASSTSGIFFQGDDESQSFINSHLTSSYGNSSNSAPGCGGPTGGYHNLSMVSGDMHNPVMMSVSTPGPSAGASSLVTDANSGLSGGGPHLQRSASINNESYMRLPASPMSFSSNNISISGSSVVDGSTVVQRHDPSVQLGGSSATSLPTSQTNQIPLSMARRASESFFQDPNNLTQARKKPRLDSKQDDALQQQILRQWLQRQDILQQQQQQQQQGQNPQFQILLQQQKLRQQQQYLQSLPPLQRVQLQQQQQVQQQQQLQQQHQQQQQQLQQQGMQMQLTGGPRPYENSVCARRLMQYLYHQRQRPSESSIVYWRKFVTEYFSPRAKKRWCLSHYDNVGHSALGVSPQAATDEWQCDLCGSKSGRGFEATFDVLPRLNEIKFASGVLDELLYLGVPSERRYGSGIMVLEYGKAVQESVYEHIRVVREGHLRIIFSQELKILSWEFCTRRHEELLPRRLVAPQVNQLLQVAEKCQSTIDQSGSDGIHQQDLQANSNMVMAAGRQLAKSLESHSLNDLGFSKRYVRCLQISEVVSSMKDMIDFCRDQKVGPIEALKSYPYRMKAGKPQMQEMEQLAAARGLPPDRNSLNKLMALRNSGINIPMNNMSGQGSLPGSAQAAAFALTNYQSMLMKQNHLNSDLNNTTIQQEPSRNRSASPSYQGTSPLLPGFVHSPSISGVSSHLSPQRQMPSSSYNGSTQQYHQQPPSCSSGNQTLEQQMIHQIWQQMANSNGGSGQQQQSLSGQNMMNCNTNMGRNRTDYVPAAAETPSTSNRFRGIKGLDQSQNLEGIISNTSLNFGNNGVFSNEVDESMGGYSWKS",–

# Further lines, the molecule ahead of its results:
Molecule,binding [3],binding [4],binding [5],also measured
Histone H2B as C-LUC fusion (from UniProt Q9LQQ4 1-148),–,–,–,binding [1]: binds
Histone H2B (AT1G07790) as Gal4 AD fusion (from UniProt Q9LQQ4 1-148),–,–,–,binding [2]: binds
"SEUSS-LIKE1 (SLK1) fused with the Gal4 activation domain (protein, UniProt Q0WVM7 1-748) MNRTVVSGAVESSFSLTDAVGTEALNMQRSSGINNNMRIPTSPMSFSSNSVNIPGSLVLDGSAASMQHLPQQQQQQLLQQQTGQGSVPMRENNYSHVDKKPRLEVKQEDMLQQQILQQLIQRQDPTGRNPQMQALLQQQRLRQHQQMLQSMSPSQRLQLQQQQQLRQQLQQQGTQQIPPNVRPYEVGVCARKLMMYLYHLQQRPAENCITYWRKFVAEYFSPRAKQRLCLSQYESAGHHALGMFPQAAPDMWQCDLCGTKSGKGFEATFDVLARLIEIKFASGIIDELLYLDHPRENRFPNGLMMLEYRKAVQETVHEQFRVVREGHLRIIFSQDLKILSWEFCARRHEELLLRRLIAPQVNQLLQVAQKCQSTISESGSEGVSQQDLQSNSNMVLGAGRQLAKFMELQSLNDLGYPKRYIRTLQISEVVKSMKDLMNFTGEQKIGPIEGLKRLLEQTVTVKLQKQKMQEMEQFGNNGAINGPVQAQMVLTSGTMNGSTGNNTNNHHQIVGRGAMSGPAEGQMVISSGTVSGATANNNSNNHNQIVGRGAMNGSAQAAAALTNYQSMLMRQNAMNNPNSNTGKQEGFSSQNPTPNSNQSPSSSSQQRHNLVTGGFPNSPQMQQQQRTMNGPTNILPQNHPHQLQSPHSHGNTPEQQMLHQLLQEMSENGGSVQQQQAFSGQSGSNSNAERNTTASTSNISGGGRAPSRNNSFKAASNNNLHFSEDISITDHDFSEDGFFNNNDIYGGL",binds,binds,–,–
